Results are given in words; binding and its absence hold for the method and conditions named. For some of these results: Binding seen in cells or lysates may run through a third protein. Some results given as binding are weak or reduced against the parent protein; the word gives no strength.
T1: starch synthase IIa (SSIIa) (rice, Oryza sativa L. japonica cv. Nipponbare (endogenous in developing endosperm)) (UniProt Q0DDE3)
T1 sequence: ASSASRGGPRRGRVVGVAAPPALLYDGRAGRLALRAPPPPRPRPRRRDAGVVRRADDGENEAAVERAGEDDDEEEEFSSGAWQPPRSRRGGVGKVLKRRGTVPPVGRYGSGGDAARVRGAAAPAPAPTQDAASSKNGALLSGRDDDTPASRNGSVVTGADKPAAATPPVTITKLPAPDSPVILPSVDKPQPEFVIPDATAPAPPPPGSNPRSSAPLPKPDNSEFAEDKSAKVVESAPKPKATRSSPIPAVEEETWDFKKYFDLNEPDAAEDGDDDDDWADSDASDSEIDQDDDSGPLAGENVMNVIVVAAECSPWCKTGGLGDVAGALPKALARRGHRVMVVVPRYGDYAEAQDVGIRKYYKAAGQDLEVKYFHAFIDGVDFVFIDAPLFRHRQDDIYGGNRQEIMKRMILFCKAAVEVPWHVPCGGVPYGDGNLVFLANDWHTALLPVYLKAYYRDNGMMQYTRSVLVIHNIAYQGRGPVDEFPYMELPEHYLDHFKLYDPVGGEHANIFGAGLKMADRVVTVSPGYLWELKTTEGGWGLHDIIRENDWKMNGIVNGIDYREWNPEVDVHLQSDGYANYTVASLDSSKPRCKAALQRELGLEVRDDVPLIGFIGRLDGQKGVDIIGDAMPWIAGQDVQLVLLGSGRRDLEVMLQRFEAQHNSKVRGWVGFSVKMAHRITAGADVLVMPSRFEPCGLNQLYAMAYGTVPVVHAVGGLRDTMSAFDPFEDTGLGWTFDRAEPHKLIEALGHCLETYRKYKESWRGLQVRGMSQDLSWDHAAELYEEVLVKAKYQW

Amino acid sequences for entries named in this document (tags omitted). Residues count along the entry.
UniProt A0A0P0XCU3, residues 50-1875: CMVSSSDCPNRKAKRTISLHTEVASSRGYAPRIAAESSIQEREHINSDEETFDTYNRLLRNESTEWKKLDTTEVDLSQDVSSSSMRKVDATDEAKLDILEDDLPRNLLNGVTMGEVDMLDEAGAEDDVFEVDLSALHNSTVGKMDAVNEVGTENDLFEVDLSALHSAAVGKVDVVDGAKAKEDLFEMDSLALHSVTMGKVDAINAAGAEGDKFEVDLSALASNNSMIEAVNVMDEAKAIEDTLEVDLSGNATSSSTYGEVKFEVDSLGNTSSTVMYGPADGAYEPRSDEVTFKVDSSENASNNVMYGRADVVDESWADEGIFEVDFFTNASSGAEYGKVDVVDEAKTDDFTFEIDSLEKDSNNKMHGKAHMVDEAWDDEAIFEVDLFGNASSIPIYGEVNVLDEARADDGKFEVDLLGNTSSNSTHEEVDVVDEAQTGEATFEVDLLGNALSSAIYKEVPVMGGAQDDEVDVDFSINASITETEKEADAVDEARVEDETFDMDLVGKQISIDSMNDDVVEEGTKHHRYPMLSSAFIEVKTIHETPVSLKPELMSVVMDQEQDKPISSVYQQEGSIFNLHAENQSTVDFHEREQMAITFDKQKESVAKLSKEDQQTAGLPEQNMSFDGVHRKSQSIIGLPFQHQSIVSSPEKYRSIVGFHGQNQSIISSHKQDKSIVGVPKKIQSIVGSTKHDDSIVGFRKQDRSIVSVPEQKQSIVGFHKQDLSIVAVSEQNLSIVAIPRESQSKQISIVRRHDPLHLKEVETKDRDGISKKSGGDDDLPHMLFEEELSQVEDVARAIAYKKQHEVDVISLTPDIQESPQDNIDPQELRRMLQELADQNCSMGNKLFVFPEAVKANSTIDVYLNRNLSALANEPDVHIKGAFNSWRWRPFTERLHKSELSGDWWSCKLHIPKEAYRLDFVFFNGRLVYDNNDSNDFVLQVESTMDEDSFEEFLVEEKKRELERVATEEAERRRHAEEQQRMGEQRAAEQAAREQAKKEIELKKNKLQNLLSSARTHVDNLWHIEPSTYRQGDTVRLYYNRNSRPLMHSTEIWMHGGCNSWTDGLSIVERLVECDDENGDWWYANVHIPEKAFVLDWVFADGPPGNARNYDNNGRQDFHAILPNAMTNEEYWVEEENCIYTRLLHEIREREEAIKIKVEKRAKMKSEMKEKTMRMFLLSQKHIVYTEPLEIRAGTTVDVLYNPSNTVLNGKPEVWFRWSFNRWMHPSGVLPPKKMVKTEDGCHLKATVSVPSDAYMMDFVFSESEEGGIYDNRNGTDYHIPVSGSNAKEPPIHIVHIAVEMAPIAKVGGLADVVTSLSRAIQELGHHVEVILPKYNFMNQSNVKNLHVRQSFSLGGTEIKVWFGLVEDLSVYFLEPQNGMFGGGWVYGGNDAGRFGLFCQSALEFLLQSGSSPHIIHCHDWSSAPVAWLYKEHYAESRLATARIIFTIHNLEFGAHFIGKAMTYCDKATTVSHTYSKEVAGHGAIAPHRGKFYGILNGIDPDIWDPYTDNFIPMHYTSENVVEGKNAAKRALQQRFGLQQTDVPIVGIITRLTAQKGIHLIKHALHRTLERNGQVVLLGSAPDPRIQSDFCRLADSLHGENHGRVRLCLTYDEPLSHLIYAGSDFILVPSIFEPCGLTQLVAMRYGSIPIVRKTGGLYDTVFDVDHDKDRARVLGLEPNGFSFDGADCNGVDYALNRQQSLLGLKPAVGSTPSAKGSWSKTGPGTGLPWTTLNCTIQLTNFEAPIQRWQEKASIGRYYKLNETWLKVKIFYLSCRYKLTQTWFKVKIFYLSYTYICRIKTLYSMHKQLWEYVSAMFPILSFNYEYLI

T2: starch branching enzyme I (BEI) (rice, Oryza sativa L. japonica cv. Nipponbare (endogenous in developing endosperm)) (UniProt Q01401)
T2 sequence: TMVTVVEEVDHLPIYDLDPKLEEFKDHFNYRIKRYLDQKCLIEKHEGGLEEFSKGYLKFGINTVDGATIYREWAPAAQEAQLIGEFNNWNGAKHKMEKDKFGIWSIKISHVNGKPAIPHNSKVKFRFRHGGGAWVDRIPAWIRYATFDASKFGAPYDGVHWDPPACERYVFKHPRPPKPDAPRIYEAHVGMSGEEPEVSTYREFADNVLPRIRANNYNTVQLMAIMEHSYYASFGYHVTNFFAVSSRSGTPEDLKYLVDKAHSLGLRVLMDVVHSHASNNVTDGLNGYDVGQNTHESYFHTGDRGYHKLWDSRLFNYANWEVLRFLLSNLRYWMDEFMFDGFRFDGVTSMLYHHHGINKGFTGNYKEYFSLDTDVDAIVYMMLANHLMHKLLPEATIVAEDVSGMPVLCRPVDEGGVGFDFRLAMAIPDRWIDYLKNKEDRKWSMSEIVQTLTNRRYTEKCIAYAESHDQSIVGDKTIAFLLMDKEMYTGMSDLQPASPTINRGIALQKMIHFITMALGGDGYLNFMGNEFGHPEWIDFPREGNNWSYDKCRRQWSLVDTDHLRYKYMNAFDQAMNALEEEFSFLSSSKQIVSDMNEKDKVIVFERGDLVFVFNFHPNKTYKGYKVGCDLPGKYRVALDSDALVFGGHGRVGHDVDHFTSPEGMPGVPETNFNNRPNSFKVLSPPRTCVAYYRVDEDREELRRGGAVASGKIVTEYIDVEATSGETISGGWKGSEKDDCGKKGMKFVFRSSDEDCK

T3: starch synthase I (SSI) (rice, Oryza sativa L. japonica cv. Nipponbare (endogenous in developing endosperm)) (UniProt Q0DEC8)
T3 sequence: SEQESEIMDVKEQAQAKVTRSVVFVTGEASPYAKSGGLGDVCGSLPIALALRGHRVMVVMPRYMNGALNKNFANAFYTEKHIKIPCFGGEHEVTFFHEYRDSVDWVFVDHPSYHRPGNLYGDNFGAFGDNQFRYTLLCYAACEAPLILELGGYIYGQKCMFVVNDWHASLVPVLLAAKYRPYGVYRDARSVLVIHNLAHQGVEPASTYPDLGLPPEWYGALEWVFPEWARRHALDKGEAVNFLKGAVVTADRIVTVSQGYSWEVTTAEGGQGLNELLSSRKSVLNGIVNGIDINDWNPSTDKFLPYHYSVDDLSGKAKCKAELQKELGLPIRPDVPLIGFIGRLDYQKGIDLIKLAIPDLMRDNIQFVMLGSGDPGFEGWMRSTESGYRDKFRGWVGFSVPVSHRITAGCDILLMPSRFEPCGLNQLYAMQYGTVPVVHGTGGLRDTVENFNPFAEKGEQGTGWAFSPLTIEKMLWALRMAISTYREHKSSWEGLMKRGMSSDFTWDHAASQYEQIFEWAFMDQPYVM


How the values were obtained:
[1] = target: T1, starch synthase IIa (SSIIa) (rice, Oryza sativa L. japonica cv. Nipponbare (endogenous in developing endosperm)); test: co-IP; soluble extract of developing rice endosperm mixed with isozyme-specific antibodies (pre-immune serum as control) 1.5 h at 4 °C, protein A-Sepharose 1 h at 4 °C; 10 mM HEPES-KOH pH 7.5, 100 mM NaCl, 1 mM DTT; eight washes; bound proteins analysed by western blotting
[2] = target: T2, starch branching enzyme I (BEI) (rice, Oryza sativa L. japonica cv. Nipponbare (endogenous in developing endosperm)); test: as above
[3] = target: starch synthase IIIa (SSIIIa) (rice, Oryza sativa L. japonica cv. Nipponbare (endogenous in developing endosperm)); test: as above
[4] = target: T3, starch synthase I (SSI) (rice, Oryza sativa L. japonica cv. Nipponbare (endogenous in developing endosperm)); test: as above
[5] = target: isoamylase 1 (ISA1) (rice, Oryza sativa L. japonica cv. Nipponbare (endogenous in developing endosperm)) (UniProt D0TZF0); test: SEC; gel permeation chromatography of soluble developing rice endosperm extract on Superdex 200 10/300 at 4 °C; 10 mM HEPES-KOH pH 7.5, 100 mM NaCl; fractions analysed by western blotting and native-PAGE zymograms

Molecule | binding [2] | binding [3] | also measured
starch branching enzyme I (BEI) (enzyme, UniProt Q01401 65-820) TMVTVVEEVDHLPIYDLDPKLEEFKDHFNYRIKRYLDQKCLIEKHEGGLEEFSKGYLKFGINTVDGATIYREWAPAAQEAQLIGEFNNWNGAKHKMEKDKFGIWSIKISHVNGKPAIPHNSKVKFRFRHGGGAWVDRIPAWIRYATFDASKFGAPYDGVHWDPPACERYVFKHPRPPKPDAPRIYEAHVGMSGEEPEVSTYREFADNVLPRIRANNYNTVQLMAIMEHSYYASFGYHVTNFFAVSSRSGTPEDLKYLVDKAHSLGLRVLMDVVHSHASNNVTDGLNGYDVGQNTHESYFHTGDRGYHKLWDSRLFNYANWEVLRFLLSNLRYWMDEFMFDGFRFDGVTSMLYHHHGINKGFTGNYKEYFSLDTDVDAIVYMMLANHLMHKLLPEATIVAEDVSGMPVLCRPVDEGGVGFDFRLAMAIPDRWIDYLKNKEDRKWSMSEIVQTLTNRRYTEKCIAYAESHDQSIVGDKTIAFLLMDKEMYTGMSDLQPASPTINRGIALQKMIHFITMALGGDGYLNFMGNEFGHPEWIDFPREGNNWSYDKCRRQWSLVDTDHLRYKYMNAFDQAMNALEEEFSFLSSSKQIVSDMNEKDKVIVFERGDLVFVFNFHPNKTYKGYKVGCDLPGKYRVALDSDALVFGGHGRVGHDVDHFTSPEGMPGVPETNFNNRPNSFKVLSPPRTCVAYYRVDEDREELRRGGAVASGKIVTEYIDVEATSGETISGGWKGSEKDDCGKKGMKFVFRSSDEDCK |  | binds weakly | binding [4]: binds weakly
isoamylase 1 (ISA1) (enzyme, UniProt D0TZF0 55-803) SVASAVEVGVGEDEEEGVEEEEEEVEAVVMPERYALGGACRVLAGMPAPLGATALDGGVNFAVYSAGASAASLCLFTPDDLEADEVTEEVPLDPLFNRTGNVWHVFIEGELHNMLYGYRFDGMFAPHCGQYFDVSNVVVDPYAKAVISRGEYGVPGPGGDCWPQMAGMIPLPYSTFDWQGDLPLRYPQKDLVIYEMHLRGFTKHSSSNVEHPGTYIGAISKLDYLKELGVNCVELMPCHEFNELEYFSCSSKMNFWGYSTINFFSPMIRYSSGGIRNCGRDAINEFKTFVREAHKRGIEVIMDVVFNHTAEGNEKGPILSFRGIDNSTYYMLAPKGEFYNYSGCGNTFNCNHPVVREFIVDCLRYWVTEMHVDGFRFDLASIMTRGCSLWDPVNVYGSPVEGDMTTTGTPLATPPLIDMISNDPILGDVKLIAEAWDAGGLYQVGQFPHWKIWSEWNGKYRDIVRQFIKGTDGFAGGFAECLCGSPHLYQAGGRKPWHSINFVCAHDGFTLADLVTYNKKYNSSNGEDNRDGENHNLSWNCGEEGEFAGLSVKRLRKRQMRNFFVSLMVSQGVPMFYMGDEYGHTKGGNNNTYCHDHYVNYFRWDKKEESSDLQRFCSLMTKFRKQCESLGLADFPTAQRLHWHGHQPGKPDWSETSRFVAFSTKDETKGEIYVAFNASHLPAVVGLPERPGYRWEPLVDTGKPAPYDFLTDDLPDRAHAVHLFSHFLNSNLYPMLSYSSIILELQPDD |  |  | binding [5]: binds

Continued, in another order:

binding [2] | binding [3] | Molecule | also measured
binds weakly |  | starch synthase IIIa (SSIIIa) (from UniProt A0A0P0XCU3 50-1875) (enzyme) | binding [1]: binds weakly
binds weakly |  | starch synthase I (SSI) (enzyme, UniProt Q0DEC8 114-641) SEQESEIMDVKEQAQAKVTRSVVFVTGEASPYAKSGGLGDVCGSLPIALALRGHRVMVVMPRYMNGALNKNFANAFYTEKHIKIPCFGGEHEVTFFHEYRDSVDWVFVDHPSYHRPGNLYGDNFGAFGDNQFRYTLLCYAACEAPLILELGGYIYGQKCMFVVNDWHASLVPVLLAAKYRPYGVYRDARSVLVIHNLAHQGVEPASTYPDLGLPPEWYGALEWVFPEWARRHALDKGEAVNFLKGAVVTADRIVTVSQGYSWEVTTAEGGQGLNELLSSRKSVLNGIVNGIDINDWNPSTDKFLPYHYSVDDLSGKAKCKAELQKELGLPIRPDVPLIGFIGRLDYQKGIDLIKLAIPDLMRDNIQFVMLGSGDPGFEGWMRSTESGYRDKFRGWVGFSVPVSHRITAGCDILLMPSRFEPCGLNQLYAMQYGTVPVVHGTGGLRDTVENFNPFAEKGEQGTGWAFSPLTIEKMLWALRMAISTYREHKSSWEGLMKRGMSSDFTWDHAASQYEQIFEWAFMDQPYVM | 
 | binds weakly | starch synthase IIa (SSIIa) (enzyme, UniProt Q0DDE3 17-810) ASSASRGGPRRGRVVGVAAPPALLYDGRAGRLALRAPPPPRPRPRRRDAGVVRRADDGENEAAVERAGEDDDEEEEFSSGAWQPPRSRRGGVGKVLKRRGTVPPVGRYGSGGDAARVRGAAAPAPAPTQDAASSKNGALLSGRDDDTPASRNGSVVTGADKPAAATPPVTITKLPAPDSPVILPSVDKPQPEFVIPDATAPAPPPPGSNPRSSAPLPKPDNSEFAEDKSAKVVESAPKPKATRSSPIPAVEEETWDFKKYFDLNEPDAAEDGDDDDDWADSDASDSEIDQDDDSGPLAGENVMNVIVVAAECSPWCKTGGLGDVAGALPKALARRGHRVMVVVPRYGDYAEAQDVGIRKYYKAAGQDLEVKYFHAFIDGVDFVFIDAPLFRHRQDDIYGGNRQEIMKRMILFCKAAVEVPWHVPCGGVPYGDGNLVFLANDWHTALLPVYLKAYYRDNGMMQYTRSVLVIHNIAYQGRGPVDEFPYMELPEHYLDHFKLYDPVGGEHANIFGAGLKMADRVVTVSPGYLWELKTTEGGWGLHDIIRENDWKMNGIVNGIDYREWNPEVDVHLQSDGYANYTVASLDSSKPRCKAALQRELGLEVRDDVPLIGFIGRLDGQKGVDIIGDAMPWIAGQDVQLVLLGSGRRDLEVMLQRFEAQHNSKVRGWVGFSVKMAHRITAGADVLVMPSRFEPCGLNQLYAMAYGTVPVVHAVGGLRDTMSAFDPFEDTGLGWTFDRAEPHKLIEALGHCLETYRKYKESWRGLQVRGMSQDLSWDHAAELYEEVLVKAKYQW | 
